Data reported in PMC8505764.

Experiments:
[1] = system: BdPIL1 (Brachypodium distachyon); experiment: EMSA; conditions: EMSA: 1 pmol probe, 2 ug protein in 20 uL, 50 mM Tris-HCl pH 7.5, 50 mM NaCl, 200 mM KCl, 5 mM MgCl2, 5 mM EDTA, 5 mM DTT, 30 min, recombinant protein, protein details: N-terminal GST, C-terminal strep-tag (SAWRHPQFGG), label: 5'-32P
[2] = system: BdPIL3 (Brachypodium distachyon); experiment: EMSA; conditions: EMSA: 1 pmol probe, 2 ug protein in 20 uL, 50 mM Tris-HCl pH 7.5, 50 mM NaCl, 200 mM KCl, 5 mM MgCl2, 5 mM EDTA, 5 mM DTT, 30 min, recombinant protein, protein details: N-terminal GST, C-terminal strep-tag (SAWRHPQFGG), label: 5'-32P
[3] = 10x and 20x cold competitor tested
[4] = AtphyB Pfr 0.1-2 ug added, binding inhibited
[5] = BdphyA Pfr 0.1-2 ug added, binding inhibited

| Sequence | binding result ([1]; 20x cold competitor tested) | binding result ([2]; 20x cold competitor tested) | binding result [1, 3] | binding result [1, 4] | binding result [1, 5] | binding result [2, 3] | binding result [2, 4] | binding result ([2]; BdphyA Pfr 0.1-2 ug added, inhibited more efficiently than BdPIL1) | binding result [2, 5] |
| --- | --- | --- | --- | --- | --- | --- | --- | --- | --- |
| TTGGTAATAGAAGTTGTTTGGTCGCACCATTGGAGAACACGTGAATTTTTTATTGATTGC (double strand) [BdMIR156H promoter probe (G-box)] | binds | binds | – | – | – | – | – | – | – |
| CACGTACGCCTGCACGCGCAGACGCGCTCCATCGATTATACTACTTCCTCCGGCCGGAAT (double strand) [BdPOR promoter probe (N-box)] | – | – | binds | binds more weakly | binds more weakly | binds | binds more weakly | binds more weakly | – |
| GCATGAATGCACGTACGGAGTTTGGTACGCATGCATGTGTACATGTAGTGTACGTGAATG (double strand) [BdSAUR50 promoter probe (E-box)] | binds | binds | – | – | binds more weakly | – | – | – | binds more weakly |

The exact form of at least one protein or probe is not confirmed. A weaker result is weaker than the reference pair of the same experiment. At least one verdict was read from the data and is not stated in words by the source.
